Results deposited as PubChem BioAssay AID1259308 (NCATS, 2017)

Test: 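Genes whose loss raises luciferase production in HEK293 cells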 (primary screen)
Cell system: human HEK293 embryonic kidney cells stably expressing firefly luciferase (HEK-CMV-Luc2-Hygro)
Reagents: single siRNA against human genes, 0.8 pmol siRNA per well
Duration: 72 h
Detection: 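Luciferase light (ONE-Glo) measured on one replicate plate set and viability (CellTiter-Glo) on the other, scaled to a negative control siRNA, with robust z-scores and luciferase per cell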
Direction: total luciferase, z-score: higher = more reporter protein produced
Hit rule: 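Active when the median/MAD z-score for overall luciferase is greater than 3; a gene was taken forward for validation with new siRNAs if at least two of its three siRNAs passed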
Calls: active = raised luciferase; inactive = no rise
Shown is one part, drawn at random, of about 59,000 reagents. Of all reagents, about 1,510 (2.6%) are marked active. 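Calls use total luciferase alone and ignore viability, so some active siRNAs may act by altering cell number.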 Entries without a mark were called inactive. Reagents against one gene are numbered here. Further read-outs or replicates are left out here.

TUBA1A (tubulin alpha 1a) #1 scored total luciferase, z-score -1.41. After knock-down of TUBA1A (tubulin alpha 1a) #2 the results were total luciferase, z-score 0.428. For TUBA1A (tubulin alpha 1a) #3, the values are total luciferase, z-score -0.908. Depletion of NPR1 (natriuretic peptide receptor 1) #1 resulted in: total luciferase, z-score 0.088. For NPR1 (natriuretic peptide receptor 1) #2, the entry reads total luciferase, z-score 1.1. Against NPR1 (natriuretic peptide receptor 1) #3 the deposit lists total luciferase, z-score 1.01.

After knock-down of GALR2 (galanin receptor 2) #1, the screen gave total luciferase, z-score -0.372. With knock-down of GALR2 (galanin receptor 2) #2, the record shows total luciferase, z-score 0.807. GALR2 (galanin receptor 2) #3 showed total luciferase, z-score -0.953. With knock-down of COL4A5 (collagen type IV alpha 5 chain) #1, the record shows total luciferase, z-score -0.804. After knock-down of COL4A5 (collagen type IV alpha 5 chain) #2 the results were total luciferase, z-score -0.618. For COL4A5 (collagen type IV alpha 5 chain) #3, the entry reads total luciferase, z-score 0.74.

Depletion of SPPL2A (signal peptide peptidase like 2A) #1 came out at: total luciferase, z-score 0.521. After knock-down of SPPL2A (signal peptide peptidase like 2A) #2 the results were total luciferase, z-score -0.535. With knock-down of SPPL2A (signal peptide peptidase like 2A) #3, the record shows total luciferase, z-score -0.471. Against ELANE (elastase, neutrophil expressed) #1, the entry reads total luciferase, z-score 0.418. For ELANE (elastase, neutrophil expressed) #2, the entry reads total luciferase, z-score 0.123. Silencing of ELANE (elastase, neutrophil expressed) #3 came out at: total luciferase, z-score 1.57.

For C2orf42 (chromosome 2 open reading frame 42) #1, the entry reads total luciferase, z-score 0.0897. Knock-down of C2orf42 (chromosome 2 open reading frame 42) #2 gave: total luciferase, z-score -1.27. Depletion of C2orf42 (chromosome 2 open reading frame 42) #3 gave: total luciferase, z-score -0.0362.

A portion taken from the entries so far, as a working copy:
NPR1 (natriuretic peptide receptor 1) #2 | total luciferase, z-score: 1.1
NPR1 (natriuretic peptide receptor 1) #3 | total luciferase, z-score: 1.01
